Measured values reported in PubChem BioAssay AID1259354 (Paczesny and Yang Labs, IUPUI and University of Michigan, 2018).
“And” between values parts separate entries of the source, which are not always exact repeats. Equal entries are not always repeated. Screen size: about 78,000 compounds; about 1,800 (2.3%) were called active. Inconclusive means that the source gave no clear call. Such entries were picked first, then a sample of the others. Rule as the data show it: active = inhibition above about 30%; inconclusive = mostly about 10% to 28%; inactive = weaker than that.

The chains behind the UniProt entries cited, without tags or fusion partners. Where a name states a change or a piece, a line headed by the entry shows the natural chain unless it says otherwise.
UniProt Q01638: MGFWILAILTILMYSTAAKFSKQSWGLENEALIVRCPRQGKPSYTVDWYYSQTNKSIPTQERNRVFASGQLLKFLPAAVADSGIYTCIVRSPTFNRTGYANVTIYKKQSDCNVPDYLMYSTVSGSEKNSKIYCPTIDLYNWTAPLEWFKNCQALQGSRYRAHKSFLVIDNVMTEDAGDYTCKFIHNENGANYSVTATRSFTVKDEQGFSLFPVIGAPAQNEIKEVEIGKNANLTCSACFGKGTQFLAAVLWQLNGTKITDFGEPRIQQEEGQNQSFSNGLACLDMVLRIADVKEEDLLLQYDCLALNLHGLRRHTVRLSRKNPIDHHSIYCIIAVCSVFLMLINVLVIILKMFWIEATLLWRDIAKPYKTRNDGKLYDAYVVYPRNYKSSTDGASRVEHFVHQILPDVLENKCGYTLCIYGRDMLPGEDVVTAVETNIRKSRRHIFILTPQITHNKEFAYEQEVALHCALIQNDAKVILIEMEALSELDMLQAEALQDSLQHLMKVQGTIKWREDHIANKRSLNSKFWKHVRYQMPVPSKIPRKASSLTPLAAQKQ

molecular target: Interleukin-1 receptor-like 1 (Homo sapiens) (UniProt Q01638); experiment: blocks human ST2 binding to IL-33, primary screen, biochemical, AlphaLISA (AID 1259354); conditions: AlphaLISA ST2-Fc/biotin-IL-33 interaction, 1 h; at 17 µM, stronger effect = higher value

| SMILES | inhibition |
| --- | --- |
| O=C1CNc2ccc(C(=O)N3C[C@@H]4C5CCC(CC5)[C@@H]4C3)cc2N1 | inactive |
| O=C(CN1C(=O)C2CCCCN2c2ccc(S(=O)(=O)N3CCCCC3)cc21)NCc1ccccc1 (stereo not drawn) | inconclusive: 10% |
| O=[N+]([O-])c1cc(Br)c2nsnc2c1N1CCCCC1 | inconclusive: 18% |
| CCc1ccc(N2N=C(C)/C(=C/c3ccc(N(C)C)cc3)C2=O)cc1 | active: 42% |
| CCn1ccc2ccc(CN3CC(c4ccncc4)C3)cc21 | inconclusive: 11% |
| O=C1CC(Nc2ccc(Br)cc2)C(=O)N1c1cccc(Cl)c1 (stereo not drawn) | active: 32% |
| CCCCN(CC)CCNS(=O)(=O)c1cccc2cccnc12 | inconclusive: 12% |
| COc1cc(NC(=O)CNC[C@H]2CCCC[C@H]2O)cc(OC)c1 | inactive |
| O=C(Nc1ccc(F)cc1F)c1cc2ccccc2oc1=O | inactive |
| CCN(CC)CCNC(=O)c1cn(C)c(=O)c2c1c1ccccc1n2C | inactive |
| C=CCOc1ccc(/C=c2\sc3nc(=O)c(C)nn3c2=O)cc1 | inactive |
| CCn1cncc1CNC(=O)c1csc2nc(-c3cccc(OC)c3)cn12 | inconclusive: 18% |
| c1ccc(C(Cc2nc(C3CC3)n[nH]2)c2ccco2)cc1 (stereo not drawn) | inconclusive: 10% |
| COc1ccc(-n2c(O)c(C=Nc3ccc(Br)cc3)c3ccccc3c2=O)cc1 | inconclusive: 29% |
| COc1ccccc1N(C(C)=O)C1SC(=O)N(c2ccccc2)C1=O (stereo not drawn) | inconclusive: 10% |
| Cc1ccccc1-n1cc(CN(C)C(=O)c2cc3n(n2)CCN(C)C3)cn1 | inconclusive: 12% |
| COc1cc(NC(=O)c2ccccc2OC)cc(OC)c1 | inactive |
| CCn1ncnc1C(C)NCC(=O)NCc1ccccc1F (stereo not drawn) | inactive |
| O=C(c1ccc2nc3ccc(Cl)cc3c(=O)n2c1)N1CCN(c2ccc(F)cc2)CC1 | inactive |
| CCCc1cc(C(=O)N2CCC(Cc3nn(C)c(=O)n3CC)CC2)ccn1 | inactive |
| CNCC(=O)N1CCCC1c1nc(C(C)C)no1 (stereo not drawn) | inconclusive: 12% |
| CN(CCc1ccccc1)C(=O)c1nc2sccn2c1CN1CC[C@@H](O)C1 | inactive |
| Cc1ccc(C(=O)COc2ccc([N+](=O)[O-])cc2)cc1 | inconclusive: 22% |
| Cc1sc2c(c1C)C(=O)NC(c1ccccc1F)N2 (stereo not drawn) | inconclusive: 15% |
| CCCc1ccc(Oc2coc3c(C)c(OCC)ccc3c2=O)cc1 | inactive |

| SMILES | inhibition |
| --- | --- |
| Cc1ccc(NC(=O)c2ccco2)nc1 | inconclusive: 24% |
| CC(C)NC(=O)c1cc(-c2ccc(Cl)cc2)on1 | inactive |
| CCOc1ccc(C2CC(=O)C3=C(C2)Nc2ccccc2NC3c2cccc(O)c2)cc1OC (stereo not drawn) | inconclusive: 22% |
| Cn1nc(-c2ccc(Cl)cc2)c2cc(C(=O)N3CCOCC3)sc21 | inconclusive: 21% |
| CC(C)c1ccc(C2CC(c3ccc(Cl)cc3)Nc3ncnn32)cc1 (stereo not drawn) | inactive |
| Cc1ccc(Cn2c(CNS(=O)(=O)c3ccc(C)cc3C)nc3cccnc32)cc1 | inconclusive: 10% |
| Cc1cccn2cc(C(=O)NCCc3nncn3C(C)C)nc12 | inactive |
| CCN(C)Cc1ccc(-c2nc(C(F)(F)F)c(C)c(=O)[nH]2)cc1 | inconclusive: 12% |
| O=C(Nc1ccccc1Cl)C1C(c2ccccc2)C1(Cl)Cl (stereo not drawn) | inconclusive: 10% |
| Cc1ccnc(CC(C)N(C)C(=O)c2csc3nc(-c4ccccc4)cn23)c1 (stereo not drawn) | inconclusive: 11% |
| COc1ccc(NC(=O)Cn2cnc3sc4c(c3c2=O)CCCC4)cc1OC | inactive |
| CCOc1cccc(OCCCOc2ccc([N+](=O)[O-])cc2)c1 | inconclusive: 23% |
| CCOC(=O)c1c(NC(=O)CCCn2nc([N+](=O)[O-])cc2C)sc2c1CCC2 | inactive |
| O=C(c1ccccc1OC1CCN(CC2CCOC2)CC1)N1CCCCC1 (stereo not drawn) | inactive |
| O=C(O)c1cccnc1CN1CCCC(c2nc3ccccc3o2)C1 (stereo not drawn) | inactive |
| CCc1nc(NC2CCCCC2)c(C#N)c2c1CCCC2 | inconclusive: 16% |
| O=C(N[C@H]1CCN2C(=O)c3cc(-c4ccccc4F)ccc3NC(=O)[C@@H]2C1)c1ccco1 | active: 60% |
| O=C(C1CC1)N1CCc2cc(S(=O)(=O)NCCc3ccc(Cl)cc3)ccc21 | inconclusive: 16% |
| COc1ccc(C2OCC3C(c4ccc(OC)c(O)c4)OCC23)cc1O (stereo not drawn) | inconclusive: 17% |
| O=C(Nc1cccc(F)c1)C1CCN(S(=O)(=O)c2cccs2)CC1 | inactive |
| CCC1CCCCN1C(=O)C1c2cc(OC)c(OC)cc2C(=O)N(C)C1c1cccs1 (stereo not drawn) | inactive |
| CC(C)c1ccc(OCCN(C)Cc2cc3n(n2)CCCNC3)cc1 | inconclusive: 24% |
| COc1ccc(CC(=O)Nc2ccc(C)c([N+](=O)[O-])c2)cc1 | inactive |
| CC(C)SCCNS(=O)(=O)c1sc2c(c1C(=O)O)CCNC2 | inconclusive: 17% |
| Cc1ccc(C2=NN(C(=O)CCC(=O)O)C(c3cc4cc5c(cc4nc3Cl)OCO5)C2)cc1 (stereo not drawn) | inactive |

| SMILES | inhibition |
| --- | --- |
| O=[N+]([O-])c1ccccc1CN1CCC(N2CCCCC2)CC1 | inconclusive: 18% |
| Oc1c(C(Nc2nccs2)c2ccccc2)ccc2cccnc12 (stereo not drawn) | inconclusive: 15% |
| CCc1cccc(CC)c1NS(=O)(=O)c1cc(Br)cc2c1N(C(C)=O)C(C)C2 (stereo not drawn) | inactive |
| CC(C)(C)C(=O)Nc1ccc(Sc2ccc([N+](=O)[O-])cc2)cc1 | inconclusive: 26% |
| COc1ccc2[nH]cc(C(=O)c3ccc(C)c(C)c3)c(=O)c2c1 | inactive |
| Cc1ccc(S(=O)(=O)N[C@H]2C[C@@H](c3nc(-c4cccnc4)no3)N(C)C2)cc1 | inactive |
| O=C(NC1CC(=O)N(CCc2ccccc2)C1)c1ccccc1-n1cccn1 (stereo not drawn) | inactive |
| O=C(O)c1ccccc1C1CCN(C(=O)Cc2c[nH]c3ccccc23)C1 (stereo not drawn) | inconclusive: 21% |
| Cc1ccc(-n2ncc3c2CCCC3NC(=O)CSc2nncn2C)cc1C (stereo not drawn) | inconclusive: 23% |
| C=CCN1CCCC1C(=O)N1CCn2nc(C(=O)Nc3ccccc3)cc2C1 (stereo not drawn) | inconclusive: 20% |
| COc1cc(OC)cc(C(=O)Nc2cc(-c3nc4ncccc4o3)ccc2Cl)c1 | inconclusive: 28% |
| Cc1sc2ncnc(N3Cc4cnc(CC(C)C)nc4C3)c2c1C | inconclusive: 24% |
| O=C(NC[C@H]1O[C@@H](CO)[C@@H](O)[C@H]1N1CCc2ccccc2C1)c1ccco1 | inconclusive: 20% |
| O=C(NCc1ccccc1-n1cncn1)C1CCC(=O)N(C2CCCC2)C1 (stereo not drawn) | inconclusive: 10% |
| COc1ccc(-n2c(C)c3c(C)nnc(C)c3c2C)cc1OC | active: 31% |
| OC(c1ccccc1)(c1ccccc1)C1CCN(Cc2ncc[nH]2)CC1 | inconclusive: 13% |
| CN(C)c1cc[n+](CC(=O)c2ccc(Br)cc2)cc1 | inconclusive: 10% |
| CC1(C)CC(=O)C2=C(C1)Nc1c(c(=O)[nH]c(=O)n1Cc1ccccc1)C2c1ccc(O)cc1 (stereo not drawn) | inactive |
| O=c1oc2ccccc2c(NCc2ccco2)c1[N+](=O)[O-] | inconclusive: 14% |
| COc1ccc(C2=NN(S(=O)(=O)c3ccc(C)cc3)C(c3ccc(N(C)C)cc3)C2)cc1OC (stereo not drawn) | inconclusive: 20% |
| Cn1c(=O)c2c(ncn2CC(=O)Nc2ccc(Br)cn2)n(C)c1=O | inactive |
| Cc1cc(NCCN2CCCCCC2)n2c(nc3ccccc32)c1C#N | active: 45% |
| O=C(CS(=O)(=O)c1cccc2nsnc12)Nc1ccccc1F | inconclusive: 11% |
| COc1cc(-c2ccccc2C(F)(F)F)nc(N)n1 | inactive |
| NC1CCN(O)C1=O (stereo not drawn) | inconclusive: 15% |

| SMILES | inhibition |
| --- | --- |
| CCN1CN=C2SC(CO)(CO)C(=O)N2C1 | inactive |
| CC1=C(C(=O)OC(C)(C)C)C(c2cccs2)C(C#N)=C(N)O1 (stereo not drawn) | inconclusive: 15% |
| COc1cccc(F)c1-c1ccc(C(=O)NC(C)(C)C)o1 | inactive |
| O=C(Nc1ccc(N2CCCC2)cc1)c1cc(I)ccc1Cl | active: 51% |
| CC(=O)Nc1ccc(C(=O)c2ccccc2)cc1 | inconclusive: 10% |
| CC1CCCCC1NC(=O)/C=C1\Sc2ccccc2NC1=O (stereo not drawn) | inactive |
| O=C(Nc1ccc(Br)cc1)c1noc2c1CCCC2 | inconclusive: 13% |
| CC(NCc1cn(C)nc1-c1ccc(Oc2ccccc2)cc1)c1ccccc1 (stereo not drawn) | inactive |
| CN(CCCc1cnn(C)c1)c1nc(-c2cccnc2)nc2c1CNC2 | inconclusive: 18% |
| CSc1ccc(-c2nc(CSCC(=O)NC(C)c3ccc4c(c3)OCCO4)c(C)o2)cc1 (stereo not drawn) | inconclusive: 19% |
| O=[N+]([O-])c1cccc(S(=O)(=O)Nc2ccccc2O)c1 | inconclusive: 18% |
| CCCNC(=O)C1CCC(Cn2c(=O)c3sccc3n(CC(=O)Nc3cccc(C)c3)c2=O)CC1 (stereo not drawn) | inconclusive: 13% |
| CC(C)c1nc(CN(C)C(=O)c2ccc(-n3cnnn3)cc2)cs1 | inconclusive: 11% |
| CN1CCCC(CN(C)C(=O)c2ccccc2-c2ccccc2)C1 (stereo not drawn) | inconclusive: 11% |
| CCC(=O)Nc1cccc(C(=O)N(Cc2ccccn2)CC(C)C)c1 | inactive |
| COC(=O)c1ccc(NC(=O)CN2CCN(Cc3ccccc3)S2(=O)=O)cc1 | inactive |
| Cc1ccc(-n2c(SCc3ccccc3F)nc3c(c2=O)SCC3)cc1 | inconclusive: 21% and inconclusive: 13% |
| CC(NC(=O)c1cc2ccccc2o1)c1ccccc1 (stereo not drawn) | inactive |
| O=c1c2cnn(-c3ccccc3)c2nc(-c2ccco2)n1-c1ccc(Br)cc1 | inconclusive: 18% |
| O=C(NCc1ccc(F)cc1)c1ccc2c(c1)N(Cc1ccc(F)cc1)C(=O)CS2=O (stereo not drawn) | inactive |
| CC1=CC[C@@H]2CN(C(=O)c3cccc(S(C)(=O)=O)c3)C[C@@H]2C1 | inconclusive: 11% |
| O=c1[nH]nc(CN2CCCCC2)n1Cc1ccccc1 | inactive |
| Cc1cccc(-c2nsc(SCC(=O)NCc3ccco3)n2)c1 | inconclusive: 12% |

Arranged by SMILES length (ascending): some entries from above

| SMILES | inhibition |
| --- | --- |
| CCn1ncnc1C(C)NCC(=O)NCc1ccccc1F (stereo not drawn) | inactive |
| O=C(CS(=O)(=O)c1cccc2nsnc12)Nc1ccccc1F | inconclusive: 11% |
| CC(NCc1cn(C)nc1-c1ccc(Oc2ccccc2)cc1)c1ccccc1 (stereo not drawn) | inactive |
| Cc1ccc(Cn2c(CNS(=O)(=O)c3ccc(C)cc3C)nc3cccnc32)cc1 | inconclusive: 10% |
| COc1ccc(C2=NN(S(=O)(=O)c3ccc(C)cc3)C(c3ccc(N(C)C)cc3)C2)cc1OC (stereo not drawn) | inconclusive: 20% |
